Earlier results in US11001802B2, “Surface of a vessel with polystyrene, nitrogen, oxygen and a static sessile contact angle for attachment and cultivation of cells” (Nunc A/S, priority 2008, dated 2021).
Some of these results come from one statement about several compounds together.

Tested on: embryonic stem cell-derived neural precursor cells
Conditions: Koyanagi et al.; cited from earlier work

C[C@@H](N)[C@H]1CC[C@H](C(=O)Nc2ccncc2)CC1 [Surface Y-27632, Y-27632]
decrease of dissociation-induced apoptosis (anoikis): 20-30%
